The record followed here is patent US8669228B2 (Indiana University Research and Technology Corporation, priority 2007, dated 2014).

The nature of the series: general procedure: Boc solid-phase peptide synthesis; Boc Thr(OBzl) Pam resin; methoxybenzhydrylamine resin for C-terminal amide; HBTU. As to conditions: conjugation step, analytical HPLC (Zorbax C8, 214 nm); MALDI mass spectral analysis.

Consider Glucagon Cys^24 Mal-PEG-20K, for which the “final HPLC purity” value is on record as “±90%”.
